These results are taken from the supplement of paper PMC10849652.

Chains of the proteins cited; added tags and fusions are not shown. Lines headed by an entry give the natural chain unless they say otherwise; changes in a name come on top.
UniProt Q9NUB1: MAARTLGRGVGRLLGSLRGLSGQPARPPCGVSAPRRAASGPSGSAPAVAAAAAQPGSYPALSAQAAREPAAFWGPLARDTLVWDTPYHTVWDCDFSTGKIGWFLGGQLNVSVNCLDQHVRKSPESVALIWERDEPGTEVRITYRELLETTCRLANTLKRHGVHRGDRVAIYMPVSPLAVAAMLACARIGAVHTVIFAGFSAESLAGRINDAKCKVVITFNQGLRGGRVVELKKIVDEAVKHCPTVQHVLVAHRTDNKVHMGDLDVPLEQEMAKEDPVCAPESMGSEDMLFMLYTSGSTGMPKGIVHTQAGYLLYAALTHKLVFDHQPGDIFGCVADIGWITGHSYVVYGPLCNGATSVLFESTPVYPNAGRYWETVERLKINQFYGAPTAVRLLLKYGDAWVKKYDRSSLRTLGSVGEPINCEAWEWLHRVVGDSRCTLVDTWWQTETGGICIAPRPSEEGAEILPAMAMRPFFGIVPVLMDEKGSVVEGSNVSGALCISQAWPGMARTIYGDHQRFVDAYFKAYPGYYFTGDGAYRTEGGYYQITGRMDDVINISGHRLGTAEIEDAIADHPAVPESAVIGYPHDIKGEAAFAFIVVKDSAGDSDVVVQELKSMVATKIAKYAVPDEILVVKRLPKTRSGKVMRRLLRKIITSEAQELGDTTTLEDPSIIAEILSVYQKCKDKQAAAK
UniProt Q9UKU7: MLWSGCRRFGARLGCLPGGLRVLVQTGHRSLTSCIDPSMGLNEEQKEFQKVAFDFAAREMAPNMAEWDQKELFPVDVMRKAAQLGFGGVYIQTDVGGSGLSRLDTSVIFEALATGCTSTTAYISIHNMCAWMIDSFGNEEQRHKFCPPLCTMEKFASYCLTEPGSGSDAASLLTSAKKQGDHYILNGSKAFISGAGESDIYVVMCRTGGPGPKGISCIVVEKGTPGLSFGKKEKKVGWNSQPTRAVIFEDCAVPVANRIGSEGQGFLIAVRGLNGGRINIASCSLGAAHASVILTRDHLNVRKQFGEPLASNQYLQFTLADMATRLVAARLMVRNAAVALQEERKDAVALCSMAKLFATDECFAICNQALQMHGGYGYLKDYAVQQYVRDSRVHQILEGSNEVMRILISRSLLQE
UniProt O14639: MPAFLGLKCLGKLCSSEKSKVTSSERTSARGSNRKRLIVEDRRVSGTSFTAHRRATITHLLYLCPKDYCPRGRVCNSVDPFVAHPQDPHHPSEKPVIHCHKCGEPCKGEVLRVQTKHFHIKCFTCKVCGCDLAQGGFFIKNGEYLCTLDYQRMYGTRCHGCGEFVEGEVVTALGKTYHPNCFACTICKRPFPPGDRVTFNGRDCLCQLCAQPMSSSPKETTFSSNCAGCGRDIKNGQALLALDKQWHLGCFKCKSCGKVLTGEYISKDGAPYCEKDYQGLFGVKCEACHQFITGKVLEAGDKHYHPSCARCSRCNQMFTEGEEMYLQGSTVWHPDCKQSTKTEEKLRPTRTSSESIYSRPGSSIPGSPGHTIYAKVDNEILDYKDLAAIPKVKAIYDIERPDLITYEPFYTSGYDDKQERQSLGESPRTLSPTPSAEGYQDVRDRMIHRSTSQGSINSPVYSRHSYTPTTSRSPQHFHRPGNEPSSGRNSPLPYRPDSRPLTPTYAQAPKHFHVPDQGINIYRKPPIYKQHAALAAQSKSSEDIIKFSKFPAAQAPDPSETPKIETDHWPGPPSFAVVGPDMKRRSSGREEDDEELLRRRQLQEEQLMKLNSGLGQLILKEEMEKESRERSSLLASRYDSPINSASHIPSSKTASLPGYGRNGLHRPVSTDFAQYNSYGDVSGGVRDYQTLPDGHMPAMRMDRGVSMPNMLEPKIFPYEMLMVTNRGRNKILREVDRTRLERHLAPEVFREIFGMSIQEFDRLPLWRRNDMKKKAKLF
UniProt O14734: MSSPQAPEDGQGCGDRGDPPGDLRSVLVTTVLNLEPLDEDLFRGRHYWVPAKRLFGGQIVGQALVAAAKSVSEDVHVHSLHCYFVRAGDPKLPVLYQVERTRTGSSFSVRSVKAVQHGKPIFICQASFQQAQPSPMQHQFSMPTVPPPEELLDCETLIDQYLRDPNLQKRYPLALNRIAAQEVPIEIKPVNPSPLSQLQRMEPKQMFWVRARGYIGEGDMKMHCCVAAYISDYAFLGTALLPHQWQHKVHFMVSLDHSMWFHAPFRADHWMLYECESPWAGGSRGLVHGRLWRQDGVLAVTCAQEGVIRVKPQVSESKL
UniProt Q9UKV3: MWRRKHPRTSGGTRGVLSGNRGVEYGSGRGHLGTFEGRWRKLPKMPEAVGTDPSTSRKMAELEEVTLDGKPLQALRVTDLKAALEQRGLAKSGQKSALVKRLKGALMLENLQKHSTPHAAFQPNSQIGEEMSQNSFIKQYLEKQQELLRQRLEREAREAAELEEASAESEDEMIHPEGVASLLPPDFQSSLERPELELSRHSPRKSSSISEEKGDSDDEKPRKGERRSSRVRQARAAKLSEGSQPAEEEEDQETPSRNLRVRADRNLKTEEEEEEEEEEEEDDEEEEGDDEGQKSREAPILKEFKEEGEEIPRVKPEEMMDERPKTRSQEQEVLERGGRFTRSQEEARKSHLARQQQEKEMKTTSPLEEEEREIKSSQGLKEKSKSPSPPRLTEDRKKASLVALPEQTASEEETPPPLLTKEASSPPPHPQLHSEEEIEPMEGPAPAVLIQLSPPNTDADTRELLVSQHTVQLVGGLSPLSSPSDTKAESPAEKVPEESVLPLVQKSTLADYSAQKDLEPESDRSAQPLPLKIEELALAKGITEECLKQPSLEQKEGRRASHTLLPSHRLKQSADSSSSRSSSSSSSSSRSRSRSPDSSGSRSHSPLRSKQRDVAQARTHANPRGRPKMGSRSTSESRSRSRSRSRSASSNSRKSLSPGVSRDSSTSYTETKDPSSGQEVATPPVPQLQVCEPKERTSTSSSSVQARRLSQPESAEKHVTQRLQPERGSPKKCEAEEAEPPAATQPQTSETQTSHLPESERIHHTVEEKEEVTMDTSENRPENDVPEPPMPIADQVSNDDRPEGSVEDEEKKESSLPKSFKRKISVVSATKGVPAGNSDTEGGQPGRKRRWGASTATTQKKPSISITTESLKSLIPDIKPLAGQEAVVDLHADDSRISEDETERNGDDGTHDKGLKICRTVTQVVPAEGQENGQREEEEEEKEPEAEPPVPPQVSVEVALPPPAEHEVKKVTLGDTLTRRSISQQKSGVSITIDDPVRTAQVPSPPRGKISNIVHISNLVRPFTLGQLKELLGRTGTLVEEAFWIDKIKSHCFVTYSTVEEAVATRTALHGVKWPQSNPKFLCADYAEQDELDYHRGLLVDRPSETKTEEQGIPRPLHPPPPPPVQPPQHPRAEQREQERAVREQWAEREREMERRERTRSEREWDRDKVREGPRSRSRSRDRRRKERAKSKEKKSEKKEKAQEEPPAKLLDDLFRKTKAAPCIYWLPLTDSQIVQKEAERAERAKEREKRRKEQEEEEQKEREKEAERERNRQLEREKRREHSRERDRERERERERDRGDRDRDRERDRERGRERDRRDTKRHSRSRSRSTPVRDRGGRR
UniProt P55265: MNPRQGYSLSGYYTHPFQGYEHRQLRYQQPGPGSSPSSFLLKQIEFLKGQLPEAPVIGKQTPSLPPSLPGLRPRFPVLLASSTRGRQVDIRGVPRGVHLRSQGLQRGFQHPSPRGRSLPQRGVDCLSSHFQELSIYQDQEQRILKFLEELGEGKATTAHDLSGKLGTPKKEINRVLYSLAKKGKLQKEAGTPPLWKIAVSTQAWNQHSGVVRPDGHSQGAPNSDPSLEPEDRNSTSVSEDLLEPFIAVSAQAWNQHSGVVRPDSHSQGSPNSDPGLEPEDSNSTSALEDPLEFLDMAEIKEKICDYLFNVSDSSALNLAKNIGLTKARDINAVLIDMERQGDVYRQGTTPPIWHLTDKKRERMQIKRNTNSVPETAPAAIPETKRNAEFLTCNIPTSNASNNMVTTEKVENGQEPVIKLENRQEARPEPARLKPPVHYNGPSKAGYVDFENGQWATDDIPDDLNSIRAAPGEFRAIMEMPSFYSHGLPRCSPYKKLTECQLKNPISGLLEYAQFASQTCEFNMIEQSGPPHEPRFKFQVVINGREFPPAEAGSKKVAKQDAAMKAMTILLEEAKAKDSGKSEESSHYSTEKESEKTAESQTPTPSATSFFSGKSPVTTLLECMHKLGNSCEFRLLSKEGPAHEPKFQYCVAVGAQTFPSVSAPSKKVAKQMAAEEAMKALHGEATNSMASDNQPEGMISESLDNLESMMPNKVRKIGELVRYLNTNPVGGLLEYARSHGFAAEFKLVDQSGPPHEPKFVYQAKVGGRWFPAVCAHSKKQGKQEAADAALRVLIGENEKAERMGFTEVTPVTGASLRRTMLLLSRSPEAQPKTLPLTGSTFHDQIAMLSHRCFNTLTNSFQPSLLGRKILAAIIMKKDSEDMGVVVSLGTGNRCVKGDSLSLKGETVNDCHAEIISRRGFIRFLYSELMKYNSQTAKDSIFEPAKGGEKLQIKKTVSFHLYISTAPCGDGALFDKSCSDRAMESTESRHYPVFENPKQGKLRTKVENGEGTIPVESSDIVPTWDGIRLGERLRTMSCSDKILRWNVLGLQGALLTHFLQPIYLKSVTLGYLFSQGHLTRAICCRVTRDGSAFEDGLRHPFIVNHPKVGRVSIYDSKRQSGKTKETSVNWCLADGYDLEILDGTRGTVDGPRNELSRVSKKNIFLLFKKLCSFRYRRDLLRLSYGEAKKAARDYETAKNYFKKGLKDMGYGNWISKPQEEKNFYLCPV
UniProt Q9H3P7: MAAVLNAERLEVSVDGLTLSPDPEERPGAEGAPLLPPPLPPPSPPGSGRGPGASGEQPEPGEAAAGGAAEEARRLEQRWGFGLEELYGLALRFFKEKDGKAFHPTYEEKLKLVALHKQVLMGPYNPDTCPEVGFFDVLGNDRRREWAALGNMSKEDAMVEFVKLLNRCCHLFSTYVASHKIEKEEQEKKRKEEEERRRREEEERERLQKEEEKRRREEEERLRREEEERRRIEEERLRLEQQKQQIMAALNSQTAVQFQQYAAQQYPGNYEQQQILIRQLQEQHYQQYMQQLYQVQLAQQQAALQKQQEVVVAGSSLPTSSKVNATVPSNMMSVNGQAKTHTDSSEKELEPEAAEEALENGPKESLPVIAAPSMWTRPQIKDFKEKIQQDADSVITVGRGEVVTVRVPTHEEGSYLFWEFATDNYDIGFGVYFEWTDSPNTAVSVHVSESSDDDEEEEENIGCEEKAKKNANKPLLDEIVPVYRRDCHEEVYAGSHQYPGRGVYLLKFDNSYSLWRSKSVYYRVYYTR
UniProt P33121: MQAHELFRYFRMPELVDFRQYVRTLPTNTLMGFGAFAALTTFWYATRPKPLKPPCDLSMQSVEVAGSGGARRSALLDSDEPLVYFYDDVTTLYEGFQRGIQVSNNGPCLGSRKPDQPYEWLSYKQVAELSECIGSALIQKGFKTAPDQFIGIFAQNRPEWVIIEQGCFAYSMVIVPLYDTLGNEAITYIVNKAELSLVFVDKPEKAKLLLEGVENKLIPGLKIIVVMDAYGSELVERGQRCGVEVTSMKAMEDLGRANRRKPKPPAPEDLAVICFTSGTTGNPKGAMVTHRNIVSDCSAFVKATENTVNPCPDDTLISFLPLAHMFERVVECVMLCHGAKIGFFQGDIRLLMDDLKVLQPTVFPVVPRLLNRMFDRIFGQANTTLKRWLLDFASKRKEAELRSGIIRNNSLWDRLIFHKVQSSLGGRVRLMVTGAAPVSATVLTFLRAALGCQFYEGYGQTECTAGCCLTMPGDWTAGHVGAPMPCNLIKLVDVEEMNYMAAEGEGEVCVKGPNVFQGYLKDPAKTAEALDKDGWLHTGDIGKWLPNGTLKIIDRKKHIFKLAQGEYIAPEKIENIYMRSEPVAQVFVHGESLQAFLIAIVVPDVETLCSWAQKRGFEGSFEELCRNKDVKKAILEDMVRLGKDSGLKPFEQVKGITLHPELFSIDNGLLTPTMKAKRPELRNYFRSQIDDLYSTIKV
UniProt Q9H7C9: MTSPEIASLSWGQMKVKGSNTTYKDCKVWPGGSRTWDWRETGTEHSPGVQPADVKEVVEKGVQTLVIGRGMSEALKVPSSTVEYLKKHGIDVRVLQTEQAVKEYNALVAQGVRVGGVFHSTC
UniProt P11310: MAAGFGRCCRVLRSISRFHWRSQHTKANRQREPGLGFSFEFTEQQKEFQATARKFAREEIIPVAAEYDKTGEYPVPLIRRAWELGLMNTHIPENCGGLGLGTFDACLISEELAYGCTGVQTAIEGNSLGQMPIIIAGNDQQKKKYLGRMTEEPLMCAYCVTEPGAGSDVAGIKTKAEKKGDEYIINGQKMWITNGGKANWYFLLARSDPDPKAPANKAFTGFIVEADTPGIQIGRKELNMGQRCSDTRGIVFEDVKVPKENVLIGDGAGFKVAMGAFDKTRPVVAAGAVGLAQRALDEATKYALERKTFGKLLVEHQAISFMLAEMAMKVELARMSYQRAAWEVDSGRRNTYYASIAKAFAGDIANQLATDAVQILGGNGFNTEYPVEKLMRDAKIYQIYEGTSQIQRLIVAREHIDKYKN

The list shows a part of the results.

Compound in the first assay: Cc1ncc(-c2ccnc(Nc3ccc(S(C)(=O)=O)cc3)n2)n1C(C)C
Put plainly: log2 fold change, soluble protein after heating vs DMSO (PISA); higher = thermal stabilisation; K562 cells, 10 uM, 30 min; active = over 0.2 and 3.5 SD of the protein, either way, in both replicates (recomputed). A digest of the protocol:
(§1)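 Thermal stability values are relative to control samples and come from duplicates. They are expressed as log2 fold changes. For measurement, K562 cells (2×10^6 cells/mL) received 10 μM compound for 30 min, and aliquots were heated for 3 min over 48°C-58°C, pooled, and extracted at 4°C in PBS with 0.5% NP-40. Soluble protein, the supernatant after 21,000xg for 90 min, was quantified by TMTpro 16plex LC-MS/MS with equalised channel sums.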
Consider ACTR2 (UniProt P61160), for which the log2 fold change was inactive: 0.028.
On to ACBD6 (UniProt Q9BR61), for which the log2 fold change is inactive: 0.057.
Same read-out and setting: the result for ACTR10 (UniProt Q9NZ32) reads inactive: -0.015; that for ACSS1 (UniProt Q9NUB1), inactive: -0.06.
Take A2M (UniProt P01023): the log2 fold change is inactive: 0.559.
The same measure, in the same setting: the result for ACAD8 (UniProt Q9UKU7) reads inactive: -0.09.
Same read-out and setting: the result for ACTR6 (UniProt Q9GZN1) reads inactive: 0.006; that for ABLIM1 (UniProt O14639), inactive: -0.07.
For ACP2 (UniProt P11117), the log2 fold change is inactive: 0.02.
The same measure, in the same setting: the result for ABCB10 (UniProt Q9NRK6) reads inactive: -0.004.
The same measure, in the same setting: the result for ABCB8 (UniProt Q9NUT2) reads inactive: -0.004; that for ADAM10 (UniProt O14672), inactive: 0.009; that for ADAT2 (UniProt Q7Z6V5), inactive: 0.002.
For the target ACOT7 isoform 7 (UniProt O00154), the log2 fold change is inactive: -0.01.
Same read-out and setting: the result for ACADSB (UniProt P45954) reads inactive: 0.013; that for ADAM9 (UniProt Q13443), inactive: 0.017.
Still for that read-out and setting: the result for ABCE1 (UniProt P61221) reads inactive: 0.006; that for ACAT2 (UniProt Q9BWD1), inactive: -0.014; that for ACOT8 (UniProt O14734), inactive: -0.009.
Turning to ACIN1 (UniProt Q9UKV3), the log2 fold change was inactive: -0.065.
Consider ADAR isoform 4 (UniProt P55265), for which the log2 fold change was inactive: -0.14.
As for AARS (UniProt P49588), the log2 fold change is inactive: -0.002.
Same read-out and setting: the result for ACTN4 (UniProt O43707) reads inactive: 0.005.
Consider ACBD3 (UniProt Q9H3P7), for which the log2 fold change is inactive: 0.032.
With ACTR3 (UniProt P61158), the log2 fold change is inactive: 0.024.
Regarding ACSL1 (UniProt P33121), the log2 fold change was inactive: -0.013.
With ABHD17A isoform 2 (UniProt Q96GS6), the log2 fold change is inactive: 0.018.
Still for that read-out and setting: the result for AAMP (UniProt Q13685) reads inactive: 0.012.
For the target ACLY (UniProt P53396), the log2 fold change is inactive: 0.013.
On the same count and under the same terms, the result for AAMDC (UniProt Q9H7C9) reads inactive: -0.018; that for ACTR1A (UniProt P61163), inactive: 0.005; that for ACAD9 (UniProt Q9H845), inactive: -0.023.
With ABHD14B (UniProt Q96IU4), the log2 fold change is inactive: -0.028.
Still for that read-out and setting: next, ACAA2 (UniProt P42765): inactive: -0.031.
As to ABCC1 (UniProt P33527), the log2 fold change is inactive: -0.012.
Still for that read-out and setting: the result for ACSL5 isoform 3 (UniProt Q9ULC5) reads inactive: 0.012; that for ACADM isoform 2 (UniProt P11310), inactive: -0.002.

Compound in the next assay: Cn1cc(-c2ccc3c(c2)CCN3C(=O)Cc2cccc(C(F)(F)F)c2)c2c(N)ncnc21
Described as above. In a few lines: as §1
As to ACTR2 (UniProt P61160), the log2 fold change was inactive: 0.003.
With ACBD6 (UniProt Q9BR61), the log2 fold change was inactive: -0.053.
On the same count and under the same terms, next, ACTR10 (UniProt Q9NZ32): inactive: -0.105; ACSS1 (UniProt Q9NUB1): inactive: 0.004; A2M (UniProt P01023): inactive: 0.17.
Take ACAD8 (UniProt Q9UKU7): the log2 fold change was inactive: 0.015.
For the target ACTR6 (UniProt Q9GZN1), the log2 fold change is inactive: 0.049.
Regarding ABLIM1 (UniProt O14639), the log2 fold change is inactive: 0.477.
Same read-out and setting: the result for ACP2 (UniProt P11117) reads inactive: 0.015; that for ABCB10 (UniProt Q9NRK6), inactive: 0.01; that for ABCB8 (UniProt Q9NUT2), inactive: 0.014.
Still for that read-out and setting: next, ADAM10 (UniProt O14672): inactive: 0.029.
Same read-out and setting: next, ADAT2 (UniProt Q7Z6V5): inactive: 0.025; ACOT7 isoform 7 (UniProt O00154): inactive: 0.018.
As for ACADSB (UniProt P45954), the log2 fold change is inactive: 0.081.
On the same count and under the same terms, next, ADAM9 (UniProt Q13443): inactive: 0.112; ABCE1 (UniProt P61221): inactive: 0.001; ACAT2 (UniProt Q9BWD1): inactive: 0.028.
In the case of ACOT8 (UniProt O14734), the log2 fold change is inactive: 0.018.
ACIN1 (UniProt Q9UKV3): the log2 fold change is inactive: 0.117.
Consider ADAR isoform 4 (UniProt P55265), for which the log2 fold change is inactive: -0.083.
For AARS (UniProt P49588), the log2 fold change was inactive: 0.038.
As for ACTN4 (UniProt O43707), the log2 fold change was inactive: -0.021.
Same read-out and setting: next, ACBD3 (UniProt Q9H3P7): inactive: 0.062.
The same measure, in the same setting: next, ACTR3 (UniProt P61158): inactive: -0.009.
Same read-out and setting: next, ACSL1 (UniProt P33121): inactive: 0.027; ABHD17A isoform 2 (UniProt Q96GS6): inactive: 0.028.
For the target AAMP (UniProt Q13685), the log2 fold change was inactive: -0.038.
On to ACLY (UniProt P53396), for which the log2 fold change was inactive: -0.003.
Same read-out and setting: next, AAMDC (UniProt Q9H7C9): inactive: 0.094; ACTR1A (UniProt P61163): inactive: 0.003.
Still for that read-out and setting: the result for ACAD9 (UniProt Q9H845) reads inactive: 0.047; that for ABHD14B (UniProt Q96IU4), inactive: 0.061.
Still for that read-out and setting: next, ACAA2 (UniProt P42765): inactive: 0.037.
For the target ABCC1 (UniProt P33527), the log2 fold change was inactive: 0.032.
Same read-out and setting: the result for ACSL5 isoform 3 (UniProt Q9ULC5) reads inactive: 0.066; that for ACADM isoform 2 (UniProt P11310), inactive: 0.039.
